Laboratory results taken from patent US20210261642A1, “SOLUBILITY OF GLP-1 PEPTIDE” (Novo Nordisk A/S, priority 2017, published 2021).
Further values from the same series stand in other lists.

Test: Assay (I): Determination of Solubility (96-well plate, pH 3.0-11.0, organic solvent 0-70% w/w, UV absorption at 280 nm)
Format: physicochemical
Settings: Method 1
Procedure: Assay (I): Determination of Solubility
96-Well Plate Preparation
96-well plates containing target peptide in a solid form were prepared in one of two ways:
Method 1 (evaporation): Addition of 100 μl stock solution of said peptide at a concentration of 4-6 mg/ml to each well of a 96-well half area plate (150 μl well size). Subsequently the solvent was evaporated by applying a vacuum until the solvent was completely removed.
Method 2 (precipitation): Addition of a certain volume of a stock solution of said peptide containing to each well of a 96-well half area plate followed by the addition of a certain volume of concentrated phosphoric acid to obtain a pH of 4.6 followed by addition of a certain volume of ethanol resulting in a final ethanol concentration of 20% v/v. Subsequently the plate was stored at 4° C. for 1 h and then centrifuged at 4,000 rpm for 20 min. Finally the supernatant was removed. The concentration of the stock solution was chosen in a way that the final amount of peptide after supernatant removal was >0.4 mg per well.
In both cases the stock solution was prepared by adding de-ionized water to a certain amount of powder of said peptide followed by a stepwise addition of small amounts of a concentrated sodium hydroxide solution until said peptide was completely in solution.
To determine solubility of a target peptide at different pH and organic solvent concentrations, two different buffer systems were used in independent experiments to cover the whole range from pH 3.0 to pH 11.0. Buffer system 1 covers pH 3.0-7.5 and buffer system 2 covers pH 7.5-11.0. For each buffer system 96 different solvent compositions were premixed in the following way: • 1. A low pH buffer (adjusted to either pH 3.0 or pH 7.5) and a high pH buffer (adjusted to either pH 7.5 or pH 11.0) were mixed at 8 different ratios to obtain values between pH 3.0 and pH 7.5 or pH 7.5 and pH 11.0, respectively. The total volume after mixing was 300 μl. • 2. 12 different amounts of organic solvent were then added to these buffers to obtain organic solvent (e.g. ethanol) concentrations between 0 and 70% w/w. • 3. Water was then added to obtain a total weight of 1.0 g of solvent in each well.
After preparing the 96 different solvent systems, 100 μl of each system was transferred to the 96-well plate containing the solid form of the target peptide (prepared as described in the section “96-well plate preparation”). The plate was then stored at a given temperature (between 5° C. and 70° C.) for a given time on a rotating shaker set to 400 rpm. At regular time intervals the plate was centrifuged (4,000 rpm for 10 min) and a 10 μl sample was taken from each well. The samples were then analysed by UV absorption at 280 nm for peptide quantification. Peptide concentration results are given as UV absorption at 280 nm of the sample subtracted UV absorption at 280 nm of a well comprising 10 μl water.
The buffers used were as follows: • Buffer system 1 (for the pH range from pH 3.0-7.5)
• Buffer system 2 (for the pH ranae from pH 7.5-11.0)
Solubility of liraglutide was determined using Assay (I) described herein. Liraglutide was prepared using Method 1 (evaporation) or Method 2 (precipitation) as described in subsection “96-well plate preparation”.

Peptide concentration after 5 min (MeCN 0.0% w/w, pH 10.5, 70° C.): 2.6 mg/mL
Peptide concentration after 180 min (MeCN 0.0% w/w, pH 10.5, 70° C.): >4.0 mg/mL
Peptide concentration after 5 min (MeCN 0.0% w/w, pH 10.5, RT): 0.8 mg/mL
Peptide concentration after 180 min (MeCN 0.0% w/w, pH 10.5, RT): 2.9 mg/mL
Peptide concentration after 24 h (MeCN 0.0% w/w, pH 10.5, RT): >4.0 mg/mL
Peptide concentration after 5 min (MeCN 0.0% w/w, pH 11.0, 70° C.): 2.0 mg/mL
Peptide concentration after 180 min (MeCN 0.0% w/w, pH 11.0, 70° C.): >4.0 mg/mL
Peptide concentration after 5 min (MeCN 0.0% w/w, pH 11.0, RT): 0.7 mg/mL
Peptide concentration after 180 min (MeCN 0.0% w/w, pH 11.0, RT): 2.2 mg/mL
Peptide concentration after 24 h (MeCN 0.0% w/w, pH 11.0, RT): >4.0 mg/mL
Peptide concentration after 5 min (MeCN 6.4% w/w, pH 3.0, 70° C.): 2.2 mg/mL
Peptide concentration after 180 min (MeCN 6.4% w/w, pH 3.0, 70° C.): >4.0 mg/mL
Peptide concentration after 5 min (MeCN 6.4% w/w, pH 3.0, RT): 0.2 mg/mL
Peptide concentration after 180 min (MeCN 6.4% w/w, pH 3.0, RT): 0.1 mg/mL
Peptide concentration after 5 min (MeCN 6.4% w/w, pH 3.6, 70° C.): 0.4 mg/mL
Peptide concentration after 180 min (MeCN 6.4% w/w, pH 3.6, 70° C.): 0.3 mg/mL
Peptide concentration after 5 min (MeCN 6.4% w/w, pH 3.6, RT): 0.1 mg/mL
Peptide concentration after 180 min (MeCN 6.4% w/w, pH 3.6, RT): 0.1 mg/mL
Peptide concentration after 5 min (MeCN 6.4% w/w, pH 4.3, 70° C.): 0.1 mg/mL
Peptide concentration after 180 min (MeCN 6.4% w/w, pH 4.3, 70° C.): 0.1 mg/mL
Peptide concentration after 5 min (MeCN 6.4% w/w, pH 4.3, RT): 0.1 mg/mL
Peptide concentration after 180 min (MeCN 6.4% w/w, pH 4.3, RT): 0.1 mg/mL
Peptide concentration after 24 h (MeCN 6.4% w/w, pH 4.3, RT): 0.1 mg/mL
Peptide concentration after 5 min (MeCN 6.4% w/w, pH 4.9, 5° C.): 0.1 mg/mL
Peptide concentration after 180 min (MeCN 6.4% w/w, pH 4.9, 5° C.): 0.1 mg/mL
Peptide concentration after 24 h (MeCN 6.4% w/w, pH 4.9, 5° C.): 0.2 mg/mL
Peptide concentration after 5 min (MeCN 6.4% w/w, pH 4.9, 70° C.): 0.3 mg/mL
Peptide concentration after 180 min (MeCN 6.4% w/w, pH 4.9, 70° C.): 0.1 mg/mL
Peptide concentration after 5 min (MeCN 6.4% w/w, pH 4.9, RT): 0.1 mg/mL
Peptide concentration after 180 min (MeCN 6.4% w/w, pH 4.9, RT): 0.1 mg/mL
Peptide concentration after 24 h (MeCN 6.4% w/w, pH 4.9, RT): 0.1 mg/mL
Peptide concentration after 5 min (MeCN 6.4% w/w, pH 5.6, 5° C.): 0.1 mg/mL
Peptide concentration after 180 min (MeCN 6.4% w/w, pH 5.6, 5° C.): 0.1 mg/mL
Peptide concentration after 24 h (MeCN 6.4% w/w, pH 5.6, 5° C.): 0.1 mg/mL
Peptide concentration after 5 min (MeCN 6.4% w/w, pH 5.6, 70° C.): 0.7 mg/mL
Peptide concentration after 180 min (MeCN 6.4% w/w, pH 5.6, 70° C.): 1.0 mg/mL
Peptide concentration after 5 min (MeCN 6.4% w/w, pH 5.6, RT): 0.1 mg/mL
Peptide concentration after 180 min (MeCN 6.4% w/w, pH 5.6, RT): 0.1 mg/mL
Peptide concentration after 24 h (MeCN 6.4% w/w, pH 5.6, RT): 0.1 mg/mL
Peptide concentration after 5 min (MeCN 6.4% w/w, pH 6.2, 5° C.): 0.1 mg/mL
Peptide concentration after 180 min (MeCN 6.4% w/w, pH 6.2, 5° C.): 0.2 mg/mL
Peptide concentration after 24 h (MeCN 6.4% w/w, pH 6.2, 5° C.): 0.2 mg/mL
Peptide concentration after 5 min (MeCN 6.4% w/w, pH 6.2, 70° C.): 2.4 mg/mL
Peptide concentration after 180 min (MeCN 6.4% w/w, pH 6.2, 70° C.): >4.0 mg/mL
Peptide concentration after 5 min (MeCN 6.4% w/w, pH 6.2, RT): 0.4 mg/mL
Peptide concentration after 180 min (MeCN 6.4% w/w, pH 6.2, RT): 0.9 mg/mL
Peptide concentration after 24 h (MeCN 6.4% w/w, pH 6.2, RT): 1.4 mg/mL
Peptide concentration after 5 min (MeCN 6.4% w/w, pH 6.9, 5° C.): 0.8 mg/mL
Peptide concentration after 180 min (MeCN 6.4% w/w, pH 6.9, 5° C.): 1.9 mg/mL
Structure (SMILES): CCCCCCCCCCCCCCCC(=O)N[C@@H](CCC(=O)NCCCC[C@H](NC(=O)[C@H](C)NC(=O)[C@H](C)NC(=O)[C@H](CCC(N)=O)NC(=O)CNC(=O)[C@H](CCC(=O)O)NC(=O)[C@H](CC(C)C)NC(=O)[C@H](Cc1ccc(O)cc1)NC(=O)[C@H](CO)NC(=O)[C@H](CO)NC(=O)[C@@H](NC(=O)[C@H](CC(=O)O)NC(=O)[C@H](CO)NC(=O)[C@@H](NC(=O)[C@H](Cc1ccccc1)NC(=O)[C@@H](NC(=O)CNC(=O)[C@H](CCC(=O)O)NC(=O)[C@H](C)NC(=O)[C@@H](N)Cc1cnc[nH]1)[C@@H](C)O)[C@@H](C)O)C(C)C)C(=O)N[C@@H](CCC(=O)O)C(=O)N[C@@H](Cc1ccccc1)C(=O)N[C@H](C(=O)N[C@@H](C)C(=O)N[C@@H](Cc1c[nH]c2ccccc12)C(=O)N[C@@H](CC(C)C)C(=O)N[C@H](C(=O)N[C@@H](CCCNC(=N)N)C(=O)NCC(=O)N[C@@H](CCCNC(=N)N)C(=O)NCC(=O)O)C(C)C)[C@@H](C)CC)C(=O)O [liraglutide, Arg34,Lys26-(N-epsilon-(gamma-L-glutamyl(N-alfa-hexadecanoyl)))-GLP-1(7-37)]
